Here are results for 40 compounds from PubChem BioAssay AID493014 (National Center for Advancing Translational Sciences (NCATS), 2011).

The assay is described as follows: qHTS Assay to Find Inhibitors of Chronic Active B-Cell Receptor Signaling. The conditions noted are these: ABC-DLBCL IkBa-CBG/CBR reporter, luminescence ratio (green luciferase fused to IkBa over red control in TMD8 lymphoma cells), 4 h. A digest of the protocol:
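Compounds up to 46 uM were incubated four hours with TMD8 cells whose green CBG68 luciferase is fused to IkappaBalpha; red CBR luminescence normalised the signal, and concentration-effect curves were fitted to fusion, red and ratio data.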
On the technique in general: Quantitative high-throughput screening tests each substance at several concentrations.

The mark [1] stands for this setting: measured here: CBR red luminescence, cell number.
Setting [2] is: measured here: IkBa-CBG green luminescence.

The list shows a part of the results. Shown are side measurements of this screen, not its main read-out; they come without a call. The list favours compounds with an active or inconclusive main result. Potencies come from curve fits of mixed quality, noted in brackets.

Usually AC50 stands for the concentration giving half of the maximal activity seen. In the case of `COCCn1c(N)c(C(=S)NC(=O)c2cccs2)c(=O)[nH]c1=O`, under setting [1], the AC50 is 11.2 µM [rising, partial curve, poor fit].
On to `CCN(CC)C(=O)c1sc2c(c1C)c(=O)n(CCc1ccccc1)c(=O)n2Cc1cccc(Cl)c1`, for which the AC50 under setting [1] is 6.31 µM [falling, full curve, poor fit].
For `CCc1ccccc1N(CC(=O)NC1CCCCC1)C(=O)CCC(=O)Nc1ccccn1`, the AC50 under setting [1] is 20 µM [falling, partial curve, poor fit].
In the case of `CCn1nc(C(=O)Nc2nc3ccc(C)cc3s2)c2ccccc2c1=O`, under setting [1], the AC50 was 20.6 µM [rising, single point].
The same measure, in the same setting: under `CC(C)c1ccc(NC(=O)CSc2n[nH]c(=O)n2-c2cccnc2)cc1` stands 22.4 µM [falling, partial curve, poor fit]; under `Oc1cccc(C2c3[nH]c4ccccc4c3CCN2Cc2cnn(-c3ccccc3)c2)c1` (stereo not drawn), 35.5 µM [falling, single point]; under `O=C(Nc1ccc(C(=O)N2CCOCC2)cc1)Nc1ccc(Cl)cc1Cl`, 28.2 µM [rising, partial curve, poor fit].
`CCSCc1nnc(SCC(=O)Nc2ccc(F)cc2)n1CC`: under setting [1], the AC50 was 0.447 µM [falling, full curve, poor fit].
On to `COc1ccc(C2=Nn3c(nnc3-c3ccccc3OC)SC2)cc1OC1CCOC1` (stereo not drawn), for which the AC50 under setting [2] was 2.31 µM [falling, full curve].
Take `CCN(CC)c1ccc(NC(=O)CSc2nnc(N)s2)cc1C`: the AC50 under setting [1] is 0.517 µM [rising, partial curve, poor fit].
Consider `Cc1c(C(=O)NCc2ccc3c(c2)OCO3)sc2nc(-c3ccc(F)cc3)cn12`, for which the AC50 under setting [1] was 32.6 µM [rising, partial curve, poor fit].
Turning to `COc1cccc(C(=O)NCC(c2ccc3c(c2)OCO3)N2CCN(c3ccc(F)cc3)CC2)c1` (stereo not drawn), under setting [1], the AC50 is 20.6 µM [falling, partial curve].
As to `Fc1ccccc1C1c2cccn2CCN1C(=S)Nc1ccc(Br)cc1` (stereo not drawn), the AC50 under setting [1] was 12.6 µM [falling, single point].
Turning to `CCOC(=O)c1cnc(Nc2ccc(OCC)cc2)nc1C`, under setting [1], the AC50 was 8.2 µM [falling, partial curve, poor fit].
On the same count and under the same terms, under `CC(C)(C)c1ccc(C(=O)Nc2cnccn2)cc1` stands 0.146 µM [rising, full curve, poor fit].
Regarding `Cc1cccc(C(=O)OC(C)C(=O)NC(=O)NC2CCCCC2)c1O` (stereo not drawn), the AC50 under setting [1] was 32.6 µM [rising, partial curve, poor fit].
In the case of `O=C(COc1ccccc1)N1CCN(c2ncnc3c2cnn3-c2ccccc2)CC1`, the AC50 under setting [1] was 36.6 µM [falling, partial curve, poor fit].
Regarding `CCOC(=O)c1cnc2c(C#N)c(C)nn2c1-c1ccccc1`, the AC50 under setting [1] is 29.1 µM [rising, single point].
Regarding `CC(=O)Nc1cc(N=Cc2ccc(O)cc2O)c(Cl)cc1Cl`, the AC50 was 20.6 µM [falling, single point] under setting [1] and 20.6 µM [falling, partial curve, poor fit] under setting [2].
Take `Cc1ccc(-n2ncc3c(N4CCCCCC4)ncnc32)cc1C`: the AC50 under setting [1] is 7.94 µM [rising, partial curve, poor fit].
For the compound `CN(C)CCCN(C(=O)c1ccc(S(=O)(=O)N2CCCCCC2)cc1)c1nc2c(F)cccc2s1`, the AC50 under setting [1] was 12.6 µM [rising, single point].
As to `CCOc1cccc(/C=C/c2ccc3cccc(O)c3n2)c1OC`, the AC50 was 3.16 µM [rising, full curve, poor fit] under setting [1] and 10 µM [falling, partial curve] under setting [2].
Turning to `O=C(Cc1ccccc1)Nc1ccc(NC(=O)c2ccccc2)nc1`, under setting [1], the AC50 is 25.1 µM [falling, single point].
For the compound `CCc1cccc(C)c1NC(=S)N(CCN(C)C)C(C)c1ccco1` (stereo not drawn), the AC50 under setting [1] was 0.447 µM [rising, full curve, poor fit].
As for `Cc1ccc(NC(=O)CSc2nc3nn(-c4ccccc4)c(=O)c-3c3n2CCCCC3)cc1F`, the AC50 under setting [1] is 29.1 µM [falling, single point].
For the compound `CC1=CC(C)C(/C=N/n2cnnc2)C(C)C1` (stereo not drawn), the AC50 under setting [1] is 10 µM [rising, partial curve, poor fit].
As for `Clc1cccc(Nc2ncnc3c2cnn3-c2ccccc2)c1`, under setting [1], the AC50 is 20.6 µM [falling, partial curve, poor fit].
On the same count and under the same terms, the same measure for `Cc1ccc(-c2csc3ncn(CC(=O)N4CCOCC4)c(=O)c23)cc1C`: 4.61 µM [rising, single point]; for `COC(=O)C1C(c2ccc(N(C)C)cc2)C(C(=O)OC)S(=O)(=O)CS1(=O)=O` (stereo not drawn): 35.5 µM [rising, single point].
As to `COc1ccc2cc(C3c4cc(OC)c(OC)cc4CCN3C(=O)c3ccco3)c(=O)[nH]c2c1` (stereo not drawn), the AC50 is 7.94 µM [rising, partial curve, poor fit] under setting [1] and 12.6 µM [falling, partial curve] under setting [2].
For `Brc1ccccc1OCCCOc1cccc2cccnc12`, under setting [1], the AC50 was 1.41 µM [rising, partial curve].
Regarding `COc1ccc(CSCCN)cc1Cl`, under setting [1], the AC50 is 11.6 µM [rising, partial curve, poor fit].
On to `Cn1cc(CNC(=O)/C=C/c2ccc(Cl)cc2)cn1`, for which the AC50 under setting [1] was 29.1 µM [falling, single point].
On to `Cc1ccc(C)c(C(C)NC(=S)NCc2ccc(F)cc2)c1` (stereo not drawn), for which, under setting [1], the AC50 is 35.5 µM [falling, single point].
The same measure, in the same setting: the same measure for `Clc1cccc(CSc2ncn(-c3ccccc3)n2)c1`: 23.1 µM [rising, single point]; for `N#CCC(=O)Nc1ccc(C(=O)NCCC(c2ccccc2)c2ccccc2)cc1`: 35.5 µM [falling, partial curve, poor fit]; for `CCn1nc(C(=O)OCC(=O)c2c[nH]c3ccccc23)c2ccccc2c1=O`: 35.5 µM [falling, single point].
As to `Cc1c(Cl)cccc1N1C(=O)c2ccccc2C1=O`, the AC50 under setting [1] was 29.1 µM [rising, single point].
For `CCCOc1ccc(NC(=O)CC2C(=O)N(CC)C(=S)N2CCNC(C)=O)cc1` (stereo not drawn), the AC50 under setting [1] was 29.1 µM [rising, single point].
Same read-out and setting: the same measure for `Cc1cccc(C)c1NC(=S)Nc1ccc(F)cc1`: 31.6 µM [rising, single point].
